No constants are given. Whether binding was seen depends on the method and setting. In cells and extracts the contact can be indirect. Some results given as binding are weak or reduced against the parent protein; the word gives no strength. Where a sequence is shown, tags or fusion partners need not be part of it.
Target: c-MET (human (endogenous in Hep3B)) (UniProt P08581)
Assay: co-IP; Hep3B cells; endogenous c-MET and Flag-tagged MUC15 were immunoprecipitated; details of the method in the supplement

The chains behind the UniProt entries cited, without tags or fusion partners. Residues count along the entry.
UniProt P08581, residues 25-1390: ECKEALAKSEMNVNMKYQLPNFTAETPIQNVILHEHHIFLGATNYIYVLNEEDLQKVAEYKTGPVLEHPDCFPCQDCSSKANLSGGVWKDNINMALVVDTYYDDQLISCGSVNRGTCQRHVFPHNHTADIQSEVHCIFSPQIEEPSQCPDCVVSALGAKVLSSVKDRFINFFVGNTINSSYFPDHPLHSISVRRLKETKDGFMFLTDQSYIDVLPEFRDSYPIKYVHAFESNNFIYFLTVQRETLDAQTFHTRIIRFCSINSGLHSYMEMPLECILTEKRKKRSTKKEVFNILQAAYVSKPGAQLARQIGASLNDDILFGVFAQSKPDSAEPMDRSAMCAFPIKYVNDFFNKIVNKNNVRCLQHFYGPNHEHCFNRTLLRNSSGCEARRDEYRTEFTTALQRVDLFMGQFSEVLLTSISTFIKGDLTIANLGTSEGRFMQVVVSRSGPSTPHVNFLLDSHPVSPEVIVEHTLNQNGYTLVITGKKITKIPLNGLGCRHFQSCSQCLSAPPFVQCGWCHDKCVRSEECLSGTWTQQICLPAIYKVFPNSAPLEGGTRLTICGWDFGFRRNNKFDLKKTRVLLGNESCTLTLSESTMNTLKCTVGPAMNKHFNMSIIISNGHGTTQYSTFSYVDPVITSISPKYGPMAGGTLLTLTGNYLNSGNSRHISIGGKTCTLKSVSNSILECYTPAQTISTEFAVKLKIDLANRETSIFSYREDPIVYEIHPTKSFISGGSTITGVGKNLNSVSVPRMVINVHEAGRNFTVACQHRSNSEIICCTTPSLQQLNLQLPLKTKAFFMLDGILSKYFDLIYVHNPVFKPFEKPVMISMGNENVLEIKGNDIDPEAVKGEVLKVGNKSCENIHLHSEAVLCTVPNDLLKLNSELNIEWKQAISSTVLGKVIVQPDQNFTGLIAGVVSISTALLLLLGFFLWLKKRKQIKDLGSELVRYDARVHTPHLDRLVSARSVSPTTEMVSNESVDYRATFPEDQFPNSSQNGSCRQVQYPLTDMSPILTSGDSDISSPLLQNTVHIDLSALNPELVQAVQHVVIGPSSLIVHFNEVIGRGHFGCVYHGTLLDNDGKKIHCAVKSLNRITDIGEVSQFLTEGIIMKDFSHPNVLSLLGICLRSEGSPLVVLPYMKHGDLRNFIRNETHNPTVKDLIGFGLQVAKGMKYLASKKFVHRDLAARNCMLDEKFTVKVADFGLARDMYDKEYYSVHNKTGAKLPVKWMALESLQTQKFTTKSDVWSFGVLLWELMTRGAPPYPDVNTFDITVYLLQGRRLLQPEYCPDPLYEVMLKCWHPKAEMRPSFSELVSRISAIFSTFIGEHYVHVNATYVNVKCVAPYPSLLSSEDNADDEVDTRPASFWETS

binding: binds
B1: Mucin 15 (MUC15), Flag-tagged (protein, UniProt Q8N387 24-334)
chain: KENQDINTTQNIAEVFKTMENKPISLESEANLNSDKENITTSNLKASHSPPLNLPNNSHGITDFSSNSSAEHSLGSLKPTSTISTSPPLIHSFVSKVPWNAPIADEDLLPISAHPNATPALSSENFTWSLVNDTVKTPDNSSITVSILSSEPTSPSVTPLIVEPSGWLTTNSDSFTGFTPYQEKTTLQPTLKFTNNSKLFPNTSDPQKENRNTGIVFGAILGAILGVSLLTLVGYLLCGKRKTDSFSHRRLYDDRNEPVLRLDNAPEPYDVSFGNSSYYNPTLNDSAMPESEENARDGIPMDDIPPLRTSV
